# In the supplement of paper PMC6331611:
# ± gives the standard deviation of the averaged measurements. The full ranking holds about 1,600 compounds; the median of “normalized intracellular growth (luminescence, IQM-normalized) in RAW264.7 macrophages” is about 1, and the lowest 2% start at about 0.43. Some of the results follow.
# System: Salmonella enterica serovar Typhimurium SL1344
# Assay: normalized intracellular growth (luminescence, IQM-normalized) in RAW264.7 macrophages (fraction of plate interquartile mean); higher = more bacterial growth (less inhibition)
# Conditions: 10 µM
Structure (SMILES),normalized intracellular growth (time point: T3 (3 h)),normalized intracellular growth (time point: Tfinal (~6 h))
CC(C)=CC1C(C(=O)OCc2cccc(Oc3ccccc3)c2)C1(C)C (stereo not drawn),0.984 ± 0.028,0.94 ± 0.11
NC(=O)C[S@@+]([O-])C(c1ccccc1)c1ccccc1,1.01 ± 0.057,0.925 ± 0.077
C[CH2][Hg][S]c1ccccc1C(=O)[O-].[Na+],0.4 ± 0.083,0.819 ± 0.26
Oc1noc2c1CCNC2,0.959 ± 0.015,0.893 ± 0.089
CCCC(C)C1(CC)C(=O)NC(=S)NC1=O (stereo not drawn),0.942 ± 0.015,0.864 ± 0.22
O=C1C=C2C=C[C@@H]3C[C@@]2(O1)[C@H]1CCCCN31,1 ± 0.014,0.985 ± 0.031
O=C(O)CCCc1ccc(N(CCCl)CCCl)cc1,1.11 ± 0.025,1.42 ± 0.21
O=C(O[C@H]1C[C@H]2CC[C@@H](C1)[N+]21CCCC1)C(O)(c1ccccc1)c1ccccc1,0.996 ± 0.054,0.868 ± 0.29
COc1ccc(C(=O)N2CCCC2=O)cc1,0.9913 ± 0.0098,0.94 ± 0.042
Nc1ccncc1,0.708 ± 0.058,1.05 ± 0.13
Cc1ncc(CNC(=O)N(CCCl)N=O)c(N)n1,0.95 ± 0.036,1.04 ± 0.029
CNc1ccc(C(=O)CC(O)CCC(C)C2OC(=O)CC(O)CC(=O)CC(O)CC(O)CC(O)CC(O)CC3(O)CC(O)C(C(=O)OC)C(CC(O[C@@H]4O[C@H](C)[C@@H](O)[C@H](N)[C@@H]4O)/C=C/C=C/C=C/C=C/C=C/C=C/C=C/C2C)O3)cc1.COC(=O)C1C(O)CC2(O)CC(O)CC(O)CC(O)CC(O)CC(=O)CC(O)CC(=O)OC(C(C)CCC(O)CC(=O)c3ccc(N)cc3)C(C)/C=C/C=C/C=C/C=C/C=C/C=C/C=C/C(O[C@@H]3O[C@H](C)[C@@H](O)[C@H](N)[C@@H]3O)CC1O2 (stereo partly drawn),0.957 ± 0.023,0.927 ± 0.054
CCCN1C[C@H](CSC)C[C@@H]2c3cccc4[nH]cc(c34)C[C@H]21,1.01 ± 0.09,0.996 ± 0.31
N.N.[Cl][Pt][Cl],1.05 ± 0.047,0.858 ± 0.032
CC(C)(O)C(Cl)(Cl)Cl,0.985 ± 0.021,0.998 ± 0.089
Oc1cccc2cccnc12,1.04 ± 0.023,0.994 ± 0.044
c1ccc2nc(N3CCNCC3)ccc2c1,1.14 ± 0.043,1 ± 0.27
C[N+](C)(C)CCCCCCCCCC[N+](C)(C)C,1.03 ± 0.054,1.16 ± 0.17
CN1C[C@H](C(=O)N[C@]2(C)O[C@@]3(O)[C@@H]4CCCN4C(=O)[C@H](Cc4ccccc4)N3C2=O)C[C@@H]2c3cccc4[nH]cc(c34)C[C@H]21,1.02 ± 0.058,0.999 ± 0.14
C[N+]1(C)[C@@H]2CC[C@H]1C[C@@H](OC(=O)C(CO)c1ccccc1)C2 (stereo partly drawn),0.952 ± 0.043,1.26 ± 0.1
CC(CCc1ccccc1)NC(C)C(O)c1ccc(O)cc1 (stereo not drawn),1.02 ± 0.052,0.966 ± 0.097
COc1cccc(C2(O)CCCCC2CN(C)C)c1 (stereo not drawn),0.958 ± 0.02,0.925 ± 0.018
CC(=O)OC1CN2CCC1CC2 (stereo not drawn),0.716 ± 0.049,1.12 ± 0.096
O=C1C[C@@H]2OCC=C3CN4CC[C@]56c7ccccc7N1[C@H]5[C@H]2[C@H]3C[C@H]46,1.1 ± 0.066,0.86 ± 0.13

# Given with tabs: 7 of the compounds above
Structure (SMILES)	normalized intracellular growth (time point: T3 (3 h))	normalized intracellular growth (time point: Tfinal (~6 h))
NC(=O)C[S@@+]([O-])C(c1ccccc1)c1ccccc1	1.01 ± 0.057	0.925 ± 0.077
O=C(O[C@H]1C[C@H]2CC[C@@H](C1)[N+]21CCCC1)C(O)(c1ccccc1)c1ccccc1	0.996 ± 0.054	0.868 ± 0.29
Nc1ccncc1	0.708 ± 0.058	1.05 ± 0.13
Cc1ncc(CNC(=O)N(CCCl)N=O)c(N)n1	0.95 ± 0.036	1.04 ± 0.029
Oc1cccc2cccnc12	1.04 ± 0.023	0.994 ± 0.044
C[N+](C)(C)CCCCCCCCCC[N+](C)(C)C	1.03 ± 0.054	1.16 ± 0.17
C[N+]1(C)[C@@H]2CC[C@H]1C[C@@H](OC(=O)C(CO)c1ccccc1)C2 (stereo partly drawn)	0.952 ± 0.043	1.26 ± 0.1

# Continued:

Structure (SMILES),normalized intracellular growth (time point: T3 (3 h)),normalized intracellular growth (time point: Tfinal (~6 h))
N#Cc1nn(-c2c(Cl)cc(C(F)(F)F)cc2Cl)c(N)c1[S+]([O-])C(F)(F)F (stereo not drawn),1.03 ± 0.026,1 ± 0.23
NCCc1cc(O)c(O)cc1O,1.05 ± 0.033,0.988 ± 0.031
CN1[C@@H]2CC[C@H]1C[C@@H](OC(=O)[C@H](CO)c1ccccc1)C2,0.9919 ± 0.0093,1.09 ± 0.023
Cc1ccc(-c2nc3ccc(C)cn3c2CC(=O)N(C)C)cc1,1.1 ± 0.085,1.16 ± 0.052
Nc1nc(N)nc(NC2CC2)n1,0.965 ± 0.036,1.09 ± 0.088
CC(C)N(CCC(C(N)=O)(c1ccccc1)c1ccccn1)C(C)C (stereo not drawn),1.04 ± 0.029,1.13 ± 0.076
C[C@H](N)[C@H](O)c1ccc(O)c(O)c1,0.993 ± 0.03,0.948 ± 0.11
N=C(N)NN,0.998 ± 0.014,1.08 ± 0.058
O=[N+]([O-])O[C@@H]1CO[C@H]2[C@@H]1OC[C@@H]2O,1.05 ± 0.076,0.848 ± 0.069
N[C@@H](Cc1ccc(N(CCCl)CCCl)cc1)C(=O)O,0.852 ± 0.12,1.04 ± 0.22
C=C[C@H]1CN2CC[C@H]1C[C@H]2[C@H](OC(=O)OCC)c1ccnc2ccc(OC)cc12,0.96 ± 0.025,0.692 ± 0.1
COc1ccc(CN2CCNCC2)c(OC)c1OC,1.06 ± 0.027,0.799 ± 0.19
CC[C@H]1CN2CC[C@H]1C[C@@H]2[C@@H](O)c1ccnc2ccc(OC)cc12,1.03 ± 0.052,0.867 ± 0.12
C=C(C)[C@H]1CN[C@H](C(=O)O)[C@H]1CC(=O)O,0.98 ± 0.0065,0.953 ± 0.054
Cc1cc(O)ccc1Cl,1 ± 0.11,0.989 ± 0.21
O=C([O-])Cc1ccccc1.[Na+],1.15 ± 0.043,0.699 ± 0.11
CC(C)CC(N(C)C)C1(c2ccc(Cl)cc2)CCC1 (stereo not drawn),1.02 ± 0.018,1.33 ± 0.043
COP(=S)(OC)Oc1ccc(SC)c(C)c1,0.998 ± 0.072,1.18 ± 0.11
O=c1[nH]c2ccccc2n1CCCN1CCC(n2c(=O)[nH]c3cc(Cl)ccc32)CC1,1.05 ± 0.069,0.989 ± 0.1
O=C([O-])c1ccccc1-c1c2cc(Br)c(=O)cc-2oc2[c]([Hg+])c([O-])c(Br)cc12.[Na+].[Na+].[OH-],1.11 ± 0.078,1.05 ± 0.23
CC(C)[N+](C)(CCC(C(N)=O)(c1ccccc1)c1ccccc1)C(C)C,0.983 ± 0.038,1.07 ± 0.11
C#C[C@]1(O)CC[C@H]2[C@@H]3CCC4=CC(=O)CC[C@]4(C)[C@H]3CC[C@@]21C,0.955 ± 0.086,1.25 ± 0.11
C=CC[C@]1(O)CC[C@H]2[C@@H]3CCC4=CC(=O)CCC4=C3C=C[C@@]21C,0.98 ± 0.069,1.03 ± 0.049
CC(Cc1ccc(O)cc1)NCC(O)c1cc(O)cc(O)c1 (stereo not drawn),0.962 ± 0.063,0.926 ± 0.061

Structure (SMILES),normalized intracellular growth (time point: T3 (3 h)),normalized intracellular growth (time point: Tfinal (~6 h))
C=C[C@H]1CN2CC[C@H]1C[C@@H]2[C@@H](O)c1ccnc2ccccc12,0.976 ± 0.037,1.32 ± 0.059
C=CCN=C=S,1.02 ± 0.022,1.07 ± 0.046
C1CCc2nnnn2CC1,0.972 ± 0.019,0.919 ± 0.029
COc1ccc2c(c1)[C@]13CCCC[C@@H]1[C@H](C2)N(C)CC3,1.04 ± 0.051,1.06 ± 0.083
C=C[C@H]1CN2CC[C@H]1C[C@H]2[C@H](O)c1ccnc2ccccc12,0.964 ± 0.026,0.968 ± 0.35
CC(=O)OCC1=C(C(=O)O)N2C(=O)[C@@H](NC(=O)CCC[C@@H](N)C(=O)O)[C@H]2SC1,0.9743 ± 0.0042,1.11 ± 0.18
Cc1cccc(C)c1NC1=NCCCS1,1.01 ± 0.015,0.897 ± 0.044
C[C@@H](CO)NC(=O)[C@@H]1C=C2c3cccc4[nH]cc(c34)C[C@H]2N(C)C1,0.942 ± 0.039,0.891 ± 0.043
Clc1ccc(C(OCCN2CCCCC2)c2ccccc2)cc1 (stereo not drawn),0.995 ± 0.11,1.04 ± 0.28
NC(=O)C[S+]([O-])C(c1ccccc1)c1ccccc1 (stereo not drawn),1.01 ± 0.11,0.845 ± 0.15
O=P1(NCCCl)OCCCN1CCCl (stereo not drawn),0.964 ± 0.024,1.06 ± 0.21
Oc1ccc(Cl)cc1,1.02 ± 0.017,1.13 ± 0.023
CC(C)c1c(CN(C)C(C)Cc2ccccc2)n(C)n(-c2ccccc2)c1=O (stereo not drawn),1.05 ± 0.024,0.887 ± 0.045
O=c1[nH]c(=O)n(Cl)c(=O)n1Cl,0.948 ± 0.1,0.897 ± 0.093
NC(=O)CN1CCCC1=O,1.07 ± 0.075,1.17 ± 0.11
CC(C)C[C@H](CN)CC(=O)O,0.947 ± 0.012,0.952 ± 0.083
CN(C)C(=S)SSC(=S)N(C)C,1.14 ± 0.05,0.863 ± 0.0094
CCC(C)(C)O,0.918 ± 0.06,1.05 ± 0.043
CC(C)(C)NCC(O)c1ccccc1Cl (stereo not drawn),0.984 ± 0.02,0.905 ± 0.097
COC(=O)C(c1ccccc1)C1CCCCN1 (stereo not drawn),0.958 ± 0.041,1.06 ± 0.062
CO[C@]12C[C@@H](COC(=O)c3cncc(Br)c3)CN(C)[C@@H]1Cc1cn(C)c3cccc2c13,0.7 ± 0.05,0.918 ± 0.098
OC[C@@H](O)[C@H]1O[C@@H]2O[C@H](C(Cl)(Cl)Cl)O[C@@H]2[C@H]1O,1.01 ± 0.039,1.07 ± 0.077
C[N+]12CCC(CC1)C(OC(=O)C(O)(c1ccccc1)c1ccccc1)C2 (stereo not drawn),0.944 ± 0.057,0.827 ± 0.032
CC(=O)[C@H]1CC[C@H]2[C@@H]3CC[C@@H]4C[C@H](O)CC[C@]4(C)[C@H]3CC[C@]12C,1.09 ± 0.032,0.865 ± 0.21

Structure (SMILES),normalized intracellular growth (time point: T3 (3 h)),normalized intracellular growth (time point: Tfinal (~6 h))
CC(CC(C(N)=O)(c1ccccc1)c1ccccc1)N(C)C (stereo not drawn),1 ± 0.036,0.82 ± 0.15
CC1(C)C(C=C(Cl)Cl)C1C(=O)OCc1cccc(Oc2ccccc2)c1 (stereo not drawn),1.12 ± 0.029,1.11 ± 0.24
O=[N+]([O-])c1ccc([As](=O)(O)O)cc1,0.971 ± 0.064,1.07 ± 0.15
CCN(C(C)=O)c1cccc(-c2ccnc3c(C#N)cnn23)c1,1.07 ± 0.12,1.03 ± 0.22
CC[C@H]1CN2CCc3cc(OC)c(OC)cc3[C@@H]2C[C@@H]1C[C@H]1NCCc2cc(OC)c(OC)cc21,1.1 ± 0.1,1.25 ± 0.16
COc1cc([C@@H]2c3cc4c(cc3[C@H](O)[C@H]3COC(=O)[C@H]23)OCO4)cc(OC)c1OC,0.92 ± 0.035,1.04 ± 0.066
Cc1ccc(O)cc1.Cc1cccc(O)c1.Cc1ccccc1O,0.945 ± 0.022,1.1 ± 0.034
CCNC1(c2cccs2)CCCCC1=O (stereo not drawn),0.959 ± 0.023,0.585 ± 0.28
C[C@@H]1CC[C@H]2[C@@H](C)C(=O)O[C@@H]3O[C@@]4(C)CC[C@@H]1[C@]32OO4,1.02 ± 0.059,0.899 ± 0.095
CC[C@H]1[C@@H]2C[C@H]3[C@@H]4N(C)c5ccccc5[C@]45C[C@@H]([C@@H]2[C@H]5O)N3[C@@H]1O,1.07 ± 0.066,0.799 ± 0.035
O=C(NC(=O)c1c(F)cccc1F)Nc1cc(Cl)c(OC(F)(F)C(F)C(F)(F)F)cc1Cl (stereo not drawn),1.04 ± 0.04,1.04 ± 0.11
CNCC(=O)c1ccc(O)c(O)c1,0.988 ± 0.013,1.02 ± 0.061
COC(=O)C1=CCCN(C)C1,0.956 ± 0.012,0.845 ± 0.023
CC(C)(C)NCC(O)c1cc(Cl)c(N)c(Cl)c1 (stereo not drawn),0.957 ± 0.024,0.991 ± 0.19
COc1cc2c(cc1OC)[C@@]13CCN4CC5=CCO[C@H]6CC(=O)N2[C@H]1[C@H]6[C@H]5C[C@H]43,1.03 ± 0.11,0.839 ± 0.19
O=C(N/N=C/c1ccc([N+](=O)[O-])o1)c1cc([N+](=O)[O-])cc([N+](=O)[O-])c1O,1.04 ± 0.024,1.03 ± 0.19
C[C@]12CC[C@H]3[C@@H](CC[C@@]45O[C@@H]4C(O)=C(C#N)C[C@]35C)[C@@H]1CC[C@@H]2O,0.972 ± 0.022,1.03 ± 0.14
COc1ccc(Cc2nccc3cc(OC)c(OC)cc23)cc1OC,1.04 ± 0.031,0.881 ± 0.29
CCC1(CC)C(=O)C=CNC1=O,0.983 ± 0.025,0.937 ± 0.076
CC1(C)C(C=C(Cl)Cl)C1C(=O)OC(C#N)c1cccc(Oc2ccccc2)c1 (stereo not drawn),1.01 ± 0.053,1.02 ± 0.13
Oc1cc(Cl)ccc1Oc1ccc(Cl)cc1Cl,0.343 ± 0.083,0.256 ± 0.12
COc1ccc(CCN2CCC(Nc3nc4ccccc4n3Cc3ccc(F)cc3)CC2)cc1,0.916 ± 0.036,1.11 ± 0.091
